Results are given in words; binding and its absence hold for the method and conditions named. In cells and extracts the contact can be indirect. A yes stands for co-enrichment or nearness to the bait. Other partners may have been found.
Target: flag-NLRP3-APEX2 (human) (UniProt Q96P20)
Test: proximity labelling

The chains behind the UniProt entries cited, without tags or fusion partners.
UniProt Q96P20: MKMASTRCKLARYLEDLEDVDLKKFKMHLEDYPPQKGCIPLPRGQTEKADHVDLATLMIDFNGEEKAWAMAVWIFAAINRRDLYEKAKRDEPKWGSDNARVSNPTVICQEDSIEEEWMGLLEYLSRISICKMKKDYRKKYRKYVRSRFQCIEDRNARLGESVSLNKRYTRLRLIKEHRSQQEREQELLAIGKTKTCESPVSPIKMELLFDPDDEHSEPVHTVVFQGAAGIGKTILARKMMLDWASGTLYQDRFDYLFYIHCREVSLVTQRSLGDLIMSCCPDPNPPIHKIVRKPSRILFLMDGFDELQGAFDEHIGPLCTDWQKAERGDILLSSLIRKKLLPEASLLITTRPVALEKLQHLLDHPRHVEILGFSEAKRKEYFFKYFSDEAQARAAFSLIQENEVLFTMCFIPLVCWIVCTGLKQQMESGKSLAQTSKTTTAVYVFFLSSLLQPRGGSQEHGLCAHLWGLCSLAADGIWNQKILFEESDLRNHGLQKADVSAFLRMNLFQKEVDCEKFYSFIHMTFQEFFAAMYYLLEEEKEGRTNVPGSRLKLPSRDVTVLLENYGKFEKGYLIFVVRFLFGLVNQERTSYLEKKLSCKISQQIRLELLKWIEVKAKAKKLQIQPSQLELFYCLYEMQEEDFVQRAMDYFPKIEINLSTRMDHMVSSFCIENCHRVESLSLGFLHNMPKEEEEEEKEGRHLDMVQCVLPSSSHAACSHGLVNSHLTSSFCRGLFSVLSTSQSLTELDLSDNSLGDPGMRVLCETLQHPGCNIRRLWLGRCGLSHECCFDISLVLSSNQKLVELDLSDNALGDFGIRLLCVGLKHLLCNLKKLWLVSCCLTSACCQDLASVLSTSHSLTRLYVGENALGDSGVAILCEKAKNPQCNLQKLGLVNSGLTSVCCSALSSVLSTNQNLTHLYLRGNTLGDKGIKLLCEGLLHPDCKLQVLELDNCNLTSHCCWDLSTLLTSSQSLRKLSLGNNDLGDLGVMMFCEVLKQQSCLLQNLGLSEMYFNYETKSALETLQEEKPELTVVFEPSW

B1: PRKD2 (enzyme, UniProt Q9BZL6 1-878)
chain: MATAPSYPAGLPGSPGPGSPPPPGGLELQSPPPLLPQIPAPGSGVSFHIQIGLTREFVLLPAASELAHVKQLACSIVDQKFPECGFYGLYDKILLFKHDPTSANLLQLVRSSGDIQEGDLVEVVLSASATFEDFQIRPHALTVHSYRAPAFCDHCGEMLFGLVRQGLKCDGCGLNYHKRCAFSIPNNCSGARKRRLSSTSLASGHSVRLGTSESLPCTAEELSRSTTELLPRRPPSSSSSSSASSYTGRPIELDKMLLSKVKVPHTFLIHSYTRPTVCQACKKLLKGLFRQGLQCKDCKFNCHKRCATRVPNDCLGEALINGDVPMEEATDFSEADKSALMDESEDSGVIPGSHSENALHASEEEEGEGGKAQSSLGYIPLMRVVQSVRHTTRKSSTTLREGWVVHYSNKDTLRKRHYWRLDCKCITLFQNNTTNRYYKEIPLSEILTVESAQNFSLVPPGTNPHCFEIVTANATYFVGEMPGGTPGGPSGQGAEAARGWETAIRQALMPVILQDAPSAPGHAPHRQASLSISVSNSQIQENVDIATVYQIFPDEVLGSGQFGVVYGGKHRKTGRDVAVKVIDKLRFPTKQESQLRNEVAILQSLRHPGIVNLECMFETPEKVFVVMEKLHGDMLEMILSSEKGRLPERLTKFLITQILVALRHLHFKNIVHCDLKPENVLLASADPFPQVKLCDFGFARIIGEKSFRRSVVGTPAYLAPEVLLNQGYNRSLDMWSVGVIMYVSLSGTFPFNEDEDINDQIQNAAFMYPASPWSHISAGAIDLINNLLQVKMRKRYSVDKSLSHPWLQEYQTWLDLRELEGKMGERYITHESDDARWEQFAAEHPLPGSGLPTDRDLGGACPPQDHDMQGLAERISVL
binding: binds

B2: PRKD3 (enzyme, UniProt O94806 1-890)
chain: MSANNSPPSAQKSVLPTAIPAVLPAASPCSSPKTGLSARLSNGSFSAPSLTNSRGSVHTVSFLLQIGLTRESVTIEAQELSLSAVKDLVCSIVYQKFPECGFFGMYDKILLFRHDMNSENILQLITSADEIHEGDLVEVVLSALATVEDFQIRPHTLYVHSYKAPTFCDYCGEMLWGLVRQGLKCEGCGLNYHKRCAFKIPNNCSGVRKRRLSNVSLPGPGLSVPRPLQPEYVALPSEESHVHQEPSKRIPSWSGRPIWMEKMVMCRVKVPHTFAVHSYTRPTICQYCKRLLKGLFRQGMQCKDCKFNCHKRCASKVPRDCLGEVTFNGEPSSLGTDTDIPMDIDNNDINSDSSRGLDDTEEPSPPEDKMFFLDPSDLDVERDEEAVKTISPSTSNNIPLMRVVQSIKHTKRKSSTMVKEGWMVHYTSRDNLRKRHYWRLDSKCLTLFQNESGSKYYKEIPLSEILRISSPRDFTNISQGSNPHCFEIITDTMVYFVGENNGDSSHNPVLAATGVGLDVAQSWEKAIRQALMPVTPQASVCTSPGQGKDHKDLSTSISVSNCQIQENVDISTVYQIFADEVLGSGQFGIVYGGKHRKTGRDVAIKVIDKMRFPTKQESQLRNEVAILQNLHHPGIVNLECMFETPERVFVVMEKLHGDMLEMILSSEKSRLPERITKFMVTQILVALRNLHFKNIVHCDLKPENVLLASAEPFPQVKLCDFGFARIIGEKSFRRSVVGTPAYLAPEVLRSKGYNRSLDMWSVGVIIYVSLSGTFPFNEDEDINDQIQNAAFMYPPNPWREISGEAIDLINNLLQVKMRKRYSVDKSLSHPWLQDYQTWLDLREFETRIGERYITHESDDARWEIHAYTHNLVYPKHFIMAPNPDDMEEDP
binding: binds
